Test results published in PubChem BioAssay AID1794845 (National Center for Advancing Translational Sciences (NCATS), 2023).
Hit rate of the full screen: of about 6,900 compounds, fewer than 10 were called active. Calls follow the shape of the dose curve; as a rule, active = well fitted curve in the direction sought with a large enough effect; inconclusive = small, poorly fitted or top-dose-only effect, or another doubt; inactive = no such curve, though single readings can be large or run the other way. The list shows a part of the results.

Protein sequences, listed by entry. Tags and fused reporters are not part of them. Lines headed by an entry give the natural chain unless they say otherwise; changes in a name come on top.
UniProt C7C422: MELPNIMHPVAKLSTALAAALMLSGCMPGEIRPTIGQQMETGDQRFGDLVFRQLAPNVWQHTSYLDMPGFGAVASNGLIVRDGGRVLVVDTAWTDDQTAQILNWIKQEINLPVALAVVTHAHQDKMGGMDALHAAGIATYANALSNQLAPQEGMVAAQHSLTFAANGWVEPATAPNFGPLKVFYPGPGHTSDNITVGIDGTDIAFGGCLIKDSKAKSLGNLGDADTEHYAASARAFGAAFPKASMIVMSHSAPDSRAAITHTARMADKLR

What follows are molecules tested against Metallo-beta-lactamase type 2 (Klebsiella pneumoniae) (UniProt C7C422) (assay: qHTS to identify inhibitors of the New Delhi Metallo-beta-lactamase (NDM): primary screen against the NCATS Gemini Collection). Conditions: NDM-1 enzyme, meropenem hydrolysis, absorbance 300 nm; at 38.4 µM (top of the series) unless noted.
Procedure, shortened: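 Meropenem hydrolysis (50 uM final) by 2 nM NDM-1 read as 300 nm absorbance after 30 min, following >30 min compound–enzyme preincubation in HEPES pH 7.0 with 1 uM ZnSO4 and 0.01% Tween20.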
Also: % of control where 0% means no effect.

Activity % (negative = inhibition), inactive:
Cc1cc(C(=O)N2CCCC[C@H](N(C)C)C2)c(-c2ccccc2)o1 9.87%
CS(=O)(=O)c1cnc(NCCn2ccnc2)nc1C1CCCNC1 (configuration not stated) 20.5%
CC(C)c1cc(C(=O)N2CCn3nc(C(=O)Nc4ccccc4)cc3C2)n[nH]1 10.7%
CCC[C@H](N)C(=O)N1CCC2(CCC(=O)N(Cc3cnc(C)cn3)C2)CC1 -0.103%
Cc1nc(-c2c3n(c(=O)n(CC(=O)NCc4cccs4)c2=O)CCCCC3)no1 -1.57%
O=C(NC1CCN(c2cc(-c3cccs3)[nH]n2)C1)c1cccnc1 (configuration not stated) -0.143%
CC(C)Cc1nc2nccc(-c3ccsc3)n2n1 16.6%
CN1C[C@@H](NS(=O)(=O)c2ccc(C#N)cc2)C[C@H]1c1nc(-c2ccc(Cl)cc2)no1 7.95%
C[C@H](O)c1c(-c2ccc(F)cc2)noc1C(=O)N1CCCC1 12.4% [at 57.5 µM]
NC(=O)[C@H](CC1CCCCC1)NC(=O)[C@@H]1CN(C(=O)Nc2ccccc2)CCN1C(=O)C1CCCCC1 -1.6%
CC(C)CN1CCC[C@H]1c1nc(-c2ccnc(NS(C)(=O)=O)c2)no1 5.43% [at 57.5 µM]
COCCOc1ccc(-c2noc([C@@H]3CCCN3C3CCCCC3)n2)cn1 1.62% [at 57.5 µM]
CN1CCN(CCNC(=O)c2cc(-c3ccccc3)cn2C)CC1 20.7%
CCNc1nccc(N2CCC(CC(=O)NCC(C)C)CC2)n1 0.497%
COCc1noc(-c2ccc(NC[C@H]3CCc4ccccc4O3)nc2)n1 27.2%
Cc1ccc(C(=O)N2CCC(N3CCOCC3=O)CC2)cc1 -2.85%
Cn1ccnc1C(=O)N1C[C@@H](COCC2CC2)[C@H](c2ccncc2)C1 5.46%
CN(C)CCN(C)[C@@H]1[C@H](O)[C@H](CO)O[C@@H]1CNCc1cccc(Cl)c1 4.47%
Cc1cccc(-c2nc3ccc(C(=O)NC4CCCCCC4)cc3o2)n1 29% [at 57.5 µM]
COc1cccc(-c2cccc(C(=O)N3CCN(C(C)=O)CC3)c2)c1 -0.364% [at 57.5 µM]
CC(=O)N1C[C@@H](CN(C)C)[C@H](NC(=O)Cc2ccc(OC(F)(F)F)cc2)C1 20.9%
O=C(CCCc1ccccc1)Nc1ccnn1C1CCN(C(=O)CCc2cnccn2)CC1 -0.63%
Fc1ccc2nc(CO[C@H]3CN(C4CCOCC4)C[C@H]3F)[nH]c2c1 3.56% [at 57.5 µM]
COc1cccc(-c2cccc(C(=O)N3CCN([S+](=O)([O-])c4ccc(C)cc4)CC3)c2)c1 19.2%
CN1C[C@H](NCc2nccs2)CCC[C@@H](C(=O)NC2CCOCC2)CC1=O -2.79% [at 57.5 µM]
Cc1cc(-c2cc(C(=O)NCc3c(C)cc(C)[nH]c3=O)c3c(c2)ncn3C)ccn1 32.2% [at 57.5 µM]
CC(C)NCC1(COc2ccccc2)C[C@@H](O)[C@@H](O)C1 (some centres not stated) -0.832% [at 77.1 µM]
COCCn1ncc(N2CCCC(CC(=O)O)C2)cc1=O (configuration not stated) 5.5%
CC(=O)N[C@@H]1CN(S(=O)(=O)N2CCOCC2)C[C@H]1c1ccc(C)o1 29%
C[C@]1(O)CCN(C(=O)c2cc(-c3ccsc3)n[nH]2)C[C@@H]1O 5.78%
CC(C)c1noc(-c2cn(C3CCN(C(=O)Cc4ccc(F)cc4)C3)nn2)n1 (configuration not stated) -2.13%
O=C1N(Cc2ccccc2F)CCOC12CCN(Cc1ccc(F)cc1F)CC2 28% [at 57.5 µM]
Cn1cccc1C(=O)N1CC[C@H](NC(=O)Nc2ccc(F)cc2F)[C@H]1C(=O)N[C@H](Cc1ccccc1)C(N)=O -0.0836%
O=C(O)CCc1cc2n(n1)CCCN(C(=O)c1cc3c([nH]c1=O)CCC3)C2 6.54%
COCCNC(=O)c1ccc2c(c1)N(C)C(CC(=O)NCC(C)C)CO2 (configuration not stated) 7.94%
CCc1ccccc1NC(=O)c1cc2c(N3CCSCC3)nc(C)cn2n1 3.67%
O=C1OC2(CCN(C(=O)c3ccco3)CC2)CN1CCOc1ccccc1 21.6%
O=C(Nc1ccccc1C(F)(F)F)N1CCCC(Cn2cnc3cccnc32)C1 (configuration not stated) -0.209%
Cc1cc(C(=O)N2CCC(F)(c3nc(-c4ccncc4)no3)CC2)n[nH]1 -1.79%
Cc1cc(C)n(CC(=O)N2CCCCCCNC(=O)[C@@H]3CCCC[C@@H]32)n1 11.4%
CNC(=O)[C@@H]1C[C@H](Oc2ccccc2)CN1S(=O)(=O)c1cccs1 2.65%
O=C([C@H]1C[C@H](Oc2cccnc2)CN1C(=O)c1ccc2ccccc2n1)N1CCOCC1 27%
COC[C@@H]1CN(C(=O)CCc2c(C)nn(C)c2C)C[C@H]1c1ccccn1 -0.973%
O=C(Nc1ccc(Oc2ccccc2)cc1)O[C@@H]1CO[C@H]2[C@@H]1OC[C@@H]2n1nnnc1-c1ccc(-c2ccccc2)cc1 -0.658%
CN(Cc1ccccc1)Cc1nc(C2CCOC2)no1 (configuration not stated) -0.199%
COc1ccccc1-c1ccc(CN2CCCC(c3nc4ccc(C)cc4c(=O)[nH]3)C2)cc1 (configuration not stated) 2.11%
COc1cccc(N2C(=O)NC(=NC3CCCC3)C23CCCN(Cc2cccn2C)C3)c1 (configuration not stated) 10.5%
COCCN1Cc2sccc2N(CC(O)COc2ccc(OC)cc2)CCC1=O (configuration not stated) 3.92%
O=C(NCc1ccc(F)cc1)N1CCCC(Cc2noc(-c3cccnc3)n2)C1 (configuration not stated) 11.3%
CC(=O)N1CC2(CCN(C(=O)NCc3ccccc3)CC2)CC1C(=O)O (configuration not stated) 6.85%
C[C@@H](NCC1CCCC1)c1onc(-c2ccc(Cl)cc2)c1C(=O)O 1.79% [at 57.5 µM]
O=C(c1ccncc1)N1CCC(Cc2noc(-c3ccccc3)n2)C1 (configuration not stated) 4.42%
CC(C)S(=O)(=O)N1CCC2(CC1)CC1C(=O)NCCN1C2 (configuration not stated) 24.6%
O=C(N[C@@H]1COCC[C@@H]1OCC1CC1)c1ccc2c(c1)CCCO2 -1.94%
Cc1cc(OC2CN(Cc3ccnn3C)C2)ccc1F 5.53% [at 57.5 µM]
COc1ccc(CCNC(=O)c2c(-c3ccccc3)cc(=O)n3c2CCC3)cc1OC 3.56%
COCC(=O)N1CCCCC1c1nc(-c2ccccc2)n[nH]1 (configuration not stated) -0.423%
CSCCC(=O)N1CCc2c(ncnc2N2CCOCC2)C1 0.138%
CNC(=O)c1cc(C2CC2)nc2c1c(C1CCN([S+](=O)([O-])c3c(C)noc3C)CC1)nn2C 38.3%
COc1ccc([C@H]2C[C@@H](O)[C@@H](O)[C@@H]2NC(=O)C(C)C)cc1 -7.3% [at 57.5 µM]
Cc1ccc(-n2cc(CN3CCN4CCCC4C3)c(-c3cccc(C)c3)n2)cc1 (configuration not stated) -0.0696%
COc1ccc(CCNc2ncnc3c2CN(c2ccc(C)cc2)C(=O)CN3C)cc1 29.7%
CC(C)CNC(=O)CN1CCOc2c(O)cc(-c3cccc(Cl)c3)cc2C1 3.1%
CCN1CC(C(=O)N(C)Cc2ccc(Oc3ccccc3)cc2)CCC1=O (configuration not stated) 17.5%
O=C(c1cccnc1)N1CCn2cc(C(=O)N3CCOCC3)nc2C1 3.91%
O[C@]1(c2ccccc2)CCN(Cc2ccncc2)C[C@H]1N1CCCC1 79.8%
CSc1ccc(-c2ccc3c(c2)C(=O)N2CCN(C(=O)CCC(=O)O)C[C@@H]2C(=O)N3)cc1 21.6%
CC(C)CS(=O)(=O)N[C@H](C)c1onc(-c2ccc(F)cc2)c1C(=O)O -1.69% [at 57.5 µM]
COc1cccc(S(=O)(=O)N2C[C@@H](Oc3cccnc3)C[C@H]2C(=O)NC2CC2)c1 2.2%
Cc1cnn(CCC(=O)N2CCCC(c3nnc(Cn4ccnc4)n3C)C2)c1 (configuration not stated) -5.82%
COc1ccc(CN2C(=O)CO[C@H]3CN(C(=O)C4CC4)C[C@H]32)cc1 7.15% [at 57.5 µM]
C=CCNC(=O)N1CC[C@H]2CC(=O)N(C3CC3)CC[C@H]2C1 5.67% [at 77.1 µM]
C=CCNC(=O)N[C@H]1CCN(C(=O)CSC)[C@@H]1C(=O)N1CCC[C@@H]1C(N)=O 2.76% [at 57.5 µM]
O=C(C1CCC1)N1CCOc2ccc(CN3CCc4ccccc4C3)cc2C1 12.7%
CCNC(=O)[C@@H]1C[C@H](N)CN1C(=O)c1cnc(-c2cccnc2)nc1C -0.639%
Fc1ccc(OC2CN(CC3CCCCC3)C2)c(F)c1 -16.1% [at 57.5 µM]
CN(C)C[C@@H]1CN(c2ncccn2)C[C@H]1NS(=O)(=O)Cc1ccc(F)cc1 34.2%
Cc1c(F)cccc1NC(=O)N1C[C@@H](F)C[C@H]1C(=O)N1CCOCC1 -3.22%
Cc1nc2cnccn2c1C(=O)NCc1ccccc1 1.43% [at 57.5 µM]
COc1cccc(CN2CCCC3(CNc4ccccc4[S+](=O)([O-])N3)C2)c1 (configuration not stated) 3.03%
OCC1(CCCc2ccccc2)CCCNC1 (configuration not stated) 1.05%
CCn1c2c(c(=O)n1Cc1ccccc1)CCN(C(=O)c1scnc1C)C2 -7.51% [at 57.5 µM]

Compounds from the list above that have a thiophene ring, fused or not:
Activity % (negative = inhibition), inactive:
Cc1nc(-c2c3n(c(=O)n(CC(=O)NCc4cccs4)c2=O)CCCCC3)no1 -1.57%
O=C(NC1CCN(c2cc(-c3cccs3)[nH]n2)C1)c1cccnc1 (configuration not stated) -0.143%
CC(C)Cc1nc2nccc(-c3ccsc3)n2n1 16.6%
C[C@]1(O)CCN(C(=O)c2cc(-c3ccsc3)n[nH]2)C[C@@H]1O 5.78%
CNC(=O)[C@@H]1C[C@H](Oc2ccccc2)CN1S(=O)(=O)c1cccs1 2.65%
COCCN1Cc2sccc2N(CC(O)COc2ccc(OC)cc2)CCC1=O (configuration not stated) 3.92%
